In article PMC13120037:

Biological target: human serum albumin (HSA) (Homo sapiens) (UniProt P02768)
Assay: library-bead release assay (streptavidin magnetic beads with capture strand, Nanodrop of supernatant)
Conditions: HSA as negative control target, stated no cross reaction; 1x binding buffer (composition not given), room temperature, 60 min; library beads pre-incubated in 1x TES at 25 C; single-stranded DNA

## TTTTCGCTGGCTAGTCAGTTTTCTCGTCGTGTGAT [Seq78-4]
  binding result: no binding

Negatives hold for the conditions tested.
